# Data reported in PMC8385146.
# B1: Leaf and Flower Related (LFR), full length, fused with AD (protein, UniProt Q9LS90 1-460)
# chain: MQKRELGKSGGNSGGSSGPPAKRGRPFGSTSANSAAAAAAAAAADAMSPSALLGPSLLVHNSFVEQNNRRIVLALQSGLKSEVTWALNTLTLLSFKEKEDIRRDVMPLAKIAGLLDALLLIIDDWRDIALPKDLTRGTRVRTLGTNASVTGFGNEYDALASIQPPGSGIGSSAAEALGKKSTGKHQSSQWWMEEDGLFNLDDEGRSEKQMCAIAASNVIRNFSFMPDNEVVMAQHRHCLETVFQCIHDHMTEDEELVTNSLETIVNLAHLMDLRIFSSLKQSYININEKKAVQAVVGILNSSVKAWNCAAAELLGRLIINPDNEPFISPLIPQIHKRLIDLLSIQAVDAQAAAVGALYNLVEVNMDCRLKLASERWAVDRLLKVIKTPHPVPEVCRKAAMILENLVSEPQNRGLLLAYENAFAELLFQEGKYSDSFARILYELTARSNSRVASARGIWGM
# Columns and labels:
# [1] = biological target: leucine zipper (LZ) domain of SWI3B fused with BD (Arabidopsis thaliana); test: two-hybrid; directed test in yeast AH109; bait pGBKT7, prey pGADT7; growth on SD/-L-W-A-H; liquid β-galactosidase assay with ONPG
# [2] = biological target: zinc finger (ZF) domain of SWI3B fused with BD (Arabidopsis thaliana); test: as above
binder,measurement,setting,value
B1,binding,[1],binds
same,binding,[2],no binding

# No constants are given. Whether binding was seen depends on the method and setting. For some assays here: Binding calls can cover weak binding; strength is not graded here. Tags and fused reporters may be left off the sequences shown.
